Experimental data from PubChem BioAssay (NCATS).
This list was built around the results that the source calls inconclusive (neither active nor inactive); the mix of calls is not that of the screen. Potencies beside an inconclusive call are fits to weak or partial responses and may not hold up. Active and inactive are the calls of the source. Calls follow the shape of the dose curve; as a rule, active = well fitted curve in the direction sought with a large enough effect; inconclusive = small, poorly fitted or top-dose-only effect, or another doubt; inactive = no such curve, though single readings can be large; an effect the other way counts as inactive or inconclusive.

What was measured:
[1] = biological target: Retinaldehyde dehydrogenase 3 (Homo sapiens) (UniProt P47895); experiment: qHTS for Inhibitors of the Aldehyde Dehydrogenase Family (ALDH1A3) Validation screen (AID 2061312); conditions: ALDH1A3 enzyme inhibition qHTS validation, fluorescence; activity change, negative = inhibition: at 84.7 µM (top of the series); also: nearly all actives have a fitted effect of over 45% in size; as to activity change, negative = inhibition: % is scaled to controls: 0 for no effect and ±100 for the full control effect
[2] = biological target: Retinaldehyde dehydrogenase 3 (Homo sapiens) (UniProt P47895); experiment: qHTS for Inhibitors of the Aldehyde Dehydrogenase Family (ALDH1A3) Primary screen (AID 2061315); conditions: ALDH inhibition qHTS; activity change, negative = inhibition: at 56 µM (top of the series) unless noted;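 as to activity change, negative = inhibition: plate controls were DMSO vehicle for no effect and reference inhibitor for full effect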
[3] = BET inhibitor-based combinations targeting novel dependencies in MECOM-rearranged (r) AML: SET-2 cell line (AID 2202231); conditions: SET-2 AML cells viability, CellTiter-Glo luminescence, 48 h; viability: hits give low values, concentration not given here; also: nearly all actives have a fitted effect of over 35% in size;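 as to viability: plate controls were DMSO treated cells for no effect and wells without cells for full effect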
Summary of the method: (§1)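 500 cells/well; 11-pt dose curve; 48 h, standard incubator; CellTiter-Glo luminescence after 15 min RT; DMSO/empty-well normalization; AUC plus Z-AUC (mean-centered within each line).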

[4] = BET inhibitor-based combinations targeting novel dependencies in MECOM-rearranged (r) AML: OCI-AML3 cell line (AID 2202232); conditions: CellTiter-Glo luminescence, 48 h; Potency: OCI-AML3 viability; viability (% of control): at 46 µM (top of the series); also: nearly all actives have a fitted effect of over 35% in size;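 as to viability (% of control): plate controls were DMSO vehicle wells for no effect and wells without cells for full effect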
Summary of the method: as §1

[5] = BET inhibitor-based combinations targeting novel dependencies in MECOM-rearranged (r) AML: MV-4-11 cell line (AID 2202233); conditions: MV-4-11 AML viability, CellTiter-Glo luminescence, 48 h; viability, % of control: at 46 µM (top of the series) unless noted; also: nearly all actives have a fitted effect of over 45% in size;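 as to viability, % of control: plate controls were DMSO for no effect and blank wells for full effect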
Summary of the method: (§2)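 Cells were plated at 500 per well and exposed to each drug across an 11-point dose range for 48 hr at standard incubator conditions. Viability was read by CellTiter-Glo luminescence, and activity was expressed as AUC and per-cell-line Z-transformed AUC.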

[6] = BET inhibitor-based combinations targeting novel dependencies in MECOM-rearranged (r) AML: HNT-34 cell line (AID 2202234); also: nearly all actives have a fitted effect of over 35% in size;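 as to viability (% of control): plate controls were vehicle wells for no effect and cell-free wells for full effect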
Summary of the method: as §2

[7] = BET inhibitor-based combinations targeting novel dependencies in MECOM-rearranged (r) AML: UCSD-AML1 cell line (AID 2202235); conditions: UCSD-AML1 AML cells viability, CellTiter-Glo, 48 h; viability (% of control): at 46 µM (top of the series); also: nearly all actives have a fitted effect of over 40% in size
Summary of the method: as §2

[8] = BET inhibitor-based combinations targeting novel dependencies in MECOM-rearranged (r) AML: AML-191 cell line (AID 2202236; also: nearly all actives have a fitted effect of over 35% in size;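 as to viability (% of control): plate controls were vehicle wells for no effect and wells without cells for full effect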)
Summary of the method: as §1

[9] = BET inhibitor-based combinations targeting novel dependencies in MECOM-rearranged (r) AML: AML-194 cell line (AID 2202237; also: nearly all actives have a fitted effect of over 40% in size)
Summary of the method: as §1
Potency is read from the fitted curve at half-maximal effect.

With `CN(C)C(=O)NC1(c2ccccc2)CCN(CCC[C@]2(c3ccc(Cl)c(Cl)c3)CCCN(C(=O)c3ccccc3)C2)CC1` the Potency [1] was “inactive”.

In the case of `CC(C)(C)c1cc(CN2CCN(CC(O)c3ccc(Cl)cc3)CC2)cc(C(C)(C)C)c1O` (stereo not drawn), the Potency [1] is reported as inconclusive: 1.78 µM [inhibitor, full curve].

For `CCCCc1nc(C)c(CC(=S)N(C)C)c(=O)n1Cc1ccc(-c2ccccc2-c2nn[nH]n2)cc1`, the Potency [1] was inconclusive: 11.2 µM [inhibitor, full curve].

In the case of `CCCC(=O)C1CCN(c2ncnc3c2CN(C(=O)c2ccc(-c4ccccc4)cc2)CC3)CC1`, the Potency [1] is reported as “inactive”.

In the case of `CC1(C)CC(=O)N(CCCCN2CCN(c3ncccn3)CC2)C(=O)C1`, the Potency [1] is reported as “inactive”.

With `O=C(CCc1ccncc1)NNC(=O)N1Cc2ccccc2Oc2ccc(Cl)cc21` the Potency [1] was inconclusive: 7.08 µM [inhibitor, full curve, poor fit].

With `CCN(CC)CCCS(=O)(=O)N[C@H](CCc1ccccc1)c1nc(Cc2ccc(Br)cc2)no1` the Potency [1] was “inactive”.

For `COc1ccc(-n2[nH]c3c(cnc4ccccc43)c2=O)cc1`, the Potency [1] was inconclusive: 39.8 µM [inhibitor, partial curve].

In the case of `CCN1CCCC1CNC(=O)c1cc(S(N)(=O)=O)ccc1OC` (stereo not drawn), the Potency [1] is reported as “inactive”.

For `CCCn1c(=O)c2c(ncn2C)n(CCC)c1=O`, the Potency [1] was “inactive”.

With `COC1(C2=NCCN2)COc2ccccc2O1` (stereo not drawn) the Potency [1] was “inactive”.

With `CC(C)(C)c1ccc(CN2CCN(C(c3ccccc3)c3ccc(Cl)cc3)CC2)cc1` (stereo not drawn) the Potency [1] was active: 31.6 µM.

For `CCCCc1ccc(NS(=O)(=O)c2ccc(F)cc2)cc1`, the Potency [1] was inconclusive: 31.6 µM [inhibitor, full curve].

In the case of `COc1cc(/C=N\NC(=O)c2ccc3c(c2)OCO3)ccc1OCc1ccccc1`, the Potency [1] is reported as inconclusive: 3.16 µM [inhibitor, full curve, poor fit] and the Potency [2] is reported as inconclusive: 1.41 µM [inhibitor, full curve, poor fit].

For `CCCCC1CCC(c2nc(-c3ccncc3)no2)CC1` (stereo not drawn), the Potency [1] was inconclusive: 1.58 µM [inhibitor, full curve, poor fit] and the Potency [2] was “inactive”.

With `O=C(O)CCc1ccc(NCc2cccc(Oc3ccccc3)c2)cc1` the Potency [1] was “inactive”, the viability [3] was inactive: 117% and the Potency [4] was inconclusive: 0.0042 µM [inhibitor, full curve, poor fit]. For the same molecule, the Potency [5] was “inactive”, the Potency [6] was “inactive” and the Potency [7] was inconclusive: 29.5 µM [inhibitor, single point]. For the same molecule, the Potency [8] was “inactive”.

With `Cc1cnc(Nc2ccc(F)cc2Cl)nc1-c1c[nH]c(C(=O)N[C@H](CO)c2cccc(Cl)c2)c1` the Potency [1] was inconclusive: 35.5 µM [inhibitor, partial curve, poor fit], the Potency [2] was “inactive” and the Potency [3] was active: 23.5 µM.

For `Nc1nc2c(cnn2CCCc2ccc(O)cc2)c2nc(-c3ccco3)nn12`, the Potency [1] was inconclusive: 7.08 µM [inhibitor, full curve] and the Potency [2] was inconclusive: 31.6 µM [inhibitor, partial curve, poor fit].

For `COc1cc2c(cc1OCCCN1CCCC1)N=C(N)C21CCC1`, the Potency [1] was inconclusive: 79.4 µM [inhibitor, partial curve, poor fit], the Potency [2] was inconclusive: 2 µM [inhibitor, full curve, poor fit] and the Potency [5] was inconclusive: 6.61 µM [inhibitor, partial curve, poor fit]. For the same molecule, the Potency [6] was “inactive”.

For `CC(C)[C@@H](CS(=O)(=O)C(C)C)N1C(=O)[C@@](C)(CC(=O)O)C[C@H](c2cccc(Cl)c2)[C@H]1c1ccc(Cl)cc1`, the Potency [1] was inconclusive: 31.6 µM [inhibitor, full curve] and the Potency [3] was inconclusive: 23.5 µM [inhibitor, partial curve].

For `NC(=Nc1ccc(CCNCc2cccc(Cl)c2)cc1)c1cccs1`, the Potency [1] was inconclusive: 8.91 µM [inhibitor, full curve, poor fit] and the Potency [2] was “inactive”.

With `N#Cc1ccc(Oc2ccc3c(c2)COB3O)cc1` the Potency [1] was active: 2.82 µM, the Potency [2] was inconclusive: 28.2 µM [inhibitor, partial curve, poor fit] and the viability [3] was inactive: 109%. The Potency [4] was inconclusive: 0.0023 µM [inhibitor, full curve, poor fit], the Potency [5] was inconclusive: 18.6 µM [inhibitor, partial curve, poor fit] and the Potency [7] was inconclusive: 13.2 µM [inhibitor, partial curve, poor fit]. The Potency [9] was inconclusive: 20.9 µM [inhibitor, partial curve, poor fit].

With `N#Cc1cc(F)cc(-c2nc(-c3ccccn3)no2)c1` the Potency [1] was inconclusive: 1.41 µM [inhibitor, full curve, poor fit] and the Potency [2] was inconclusive: 2.24 µM [inhibitor, full curve, poor fit].

In the case of `NC1(c2ccc(-c3nc4ccn5c(=O)[nH]nc5c4cc3-c3ccccc3)cc2)CCC1`, the Potency [1] is reported as inconclusive: 15.8 µM [inhibitor, full curve], the Potency [2] is reported as inconclusive: 15.8 µM [inhibitor, partial curve, poor fit] and the Potency [3] is reported as active: 20.9 µM. For the same molecule, the Potency [8] was active: 18.6 µM.

In the case of `COc1cc(/C=C/C(=O)N2CCN(CC(=O)N3CCCC3)CC2)cc(OC)c1OC`, the Potency [1] is reported as “inactive” and the Potency [2] is reported as “inactive”.

For `C=C1/C(=C/C=C2\CCC[C@]3(C)[C@@H]([C@H](C)/C=C/[C@@H](C)C(C)C)CC[C@@H]23)C[C@@H](O)C[C@@H]1O`, the Potency [1] was inconclusive: 10 µM [inhibitor, full curve] and the Potency [2] was inconclusive: 20 µM [inhibitor, partial curve].

In the case of `CCCC(CCC)C(=O)NCc1ccc2c(cnn2-c2ccccc2OC)c1`, the Potency [1] is reported as inconclusive: 28.2 µM [inhibitor, full curve, poor fit] and the Potency [2] is reported as “inactive”.

With `CC(=O)Oc1ccccc1C(=O)O` the Potency [1] was “inactive” and the Potency [3] was inconclusive: 0.934 µM [inhibitor, full curve, poor fit].

In the case of `O=C(NO)c1ccc(CC(=O)N(CCO)c2ccccc2)cc1`, the Potency [1] is reported as inconclusive: 15.8 µM [inhibitor, full curve] and the Potency [2] is reported as inconclusive: 8.91 µM [inhibitor, partial curve].

For `COc1cc(Nc2ccc([N+](=O)[O-])cc2C(=O)O)cc2ccccc12`, the Potency [1] was inconclusive: 50.1 µM [inhibitor, single point] and the Potency [2] was inconclusive: 5.62 µM [inhibitor, partial curve].

In the case of `C[C@H](NCc1ccc(OCc2ccccc2F)cc1)C(N)=O`, the Potency [1] is reported as inconclusive: 50.1 µM [inhibitor, partial curve, poor fit] and the Potency [2] is reported as inconclusive: 12.6 µM [inhibitor, partial curve, poor fit].

In the case of `CC(NCc1ccc(OCc2cccc(F)c2)cc1)C(N)=O` (stereo not drawn), the Potency [1] is reported as inconclusive: 39.8 µM [inhibitor, partial curve] and the Potency [2] is reported as inconclusive: 12.6 µM [inhibitor, partial curve].

For `CON(C)C(=O)N1N=C(c2cc(F)ccc2F)S[C@@]1(CCCN)c1ccccc1`, the Potency [1] was “inactive”, the Potency [2] was “inactive” and the Potency [3] was active: 0.0295 µM. The Potency [6] was inconclusive: 0.0042 µM [inhibitor, full curve] and the Potency [9] was inconclusive: 0.0132 µM [inhibitor, full curve, poor fit].

With `COc1ccccc1N1CCN(c2ncnc3n[nH]c(Br)c23)CC1` the Potency [1] was “inactive” and the Potency [2] was “inactive”.

For `C=C1CC[C@H](O)CC1=C/C=C1\CCC[C@]2(C)[C@@H]([C@H](C)/C=C/[C@H](C)C(C)C)CC[C@@H]12`, the Potency [1] was active: 8.91 µM and the Potency [2] was inconclusive: 39.8 µM [inhibitor, single point].

In the case of `C1Cc2[nH]nc(-c3nn[nH]n3)c2C1`, the Potency [1] is reported as inconclusive: 2.24 µM [inhibitor, full curve, poor fit], the Potency [2] is reported as “inactive” and the viability [3] is reported as inactive: 120%. The Potency [4] was “inactive”.

In the case of `N#CC(CCCN1CCN(/N=C/c2cccnc2)CC1)(c1ccccc1)c1ccccc1`, the Potency [1] is reported as inconclusive: 2.82 µM [inhibitor, full curve] and the Potency [2] is reported as inconclusive: 1.26 µM [inhibitor, full curve].

In the case of `CCN(CC)CCCCCCNc1cc(OC)cc2c(C)ccnc12`, the Potency [1] is reported as inconclusive: 14.1 µM [inhibitor, partial curve, poor fit] and the Potency [2] is reported as active: 2.51 µM.

In the case of `CC(C)Nc1cc(C(F)(F)F)cc2nc(NC(=O)c3cccnc3)nn12`, the Potency [1] is reported as inconclusive: 35.5 µM [inhibitor, partial curve, poor fit], the Potency [3] is reported as inconclusive: 0.934 µM [inhibitor, full curve, poor fit] and the Potency [4] is reported as inconclusive: 2.09 µM [inhibitor, partial curve, poor fit].

In the case of `CC(=O)NCCCCn1c2c(c3ccccc31)C(=O)NCC2`, the Potency [1] is reported as inconclusive: 35.5 µM [inhibitor, partial curve] and the Potency [2] is reported as “inactive”.

With `Cc1cccc(C#Cc2cc(F)cc(C#N)c2)n1` the Potency [1] was active: 5.62 µM and the Potency [2] was inconclusive: 6.31 µM [inhibitor, partial curve].

For `CCC(=O)N1CCc2cc(OC)c(O)cc2C1`, the Potency [1] was active: 22.4 µM and the Potency [2] was inconclusive: 14.1 µM [inhibitor, partial curve].

With `Nc1ncnc2c1ncn2[C@H]1CCCO1` the Potency [1] was “inactive” and the Potency [2] was “inactive”.

With `CC[C@H](CC#N)OC(=O)N[C@@H](C)c1cccc(NC(=O)Nc2ccc(-c3cnco3)c(OC)c2)c1` the Potency [1] was “inactive”, the Potency [2] was “inactive” and the Potency [3] was inconclusive: 0.525 µM [inhibitor, full curve]. For the same molecule, the Potency [9] was inconclusive: 0.525 µM [inhibitor, full curve].

In the case of `CC1(C)CNc2cc(NC(=O)c3cccnc3NCc3ccncc3)ccc21`, the Potency [1] is reported as inconclusive: 35.5 µM [inhibitor, single point], the Potency [2] is reported as “inactive” and the Potency [5] is reported as inconclusive: 0.934 µM [inhibitor, full curve, poor fit]. For the same molecule, the Potency [6] was inconclusive: 33.2 µM [inhibitor, single point] and the Potency [8] was inconclusive: 37.2 µM [inhibitor, single point].
